The record followed here is the supplement of paper PMC9254222.

Over roughly 1,100 compounds, “Renilla luciferase signal (cell health) relative to plate median” has its median near 0.97; the highest 2% begin near 1.6. The list shows a part of the results, in another mix than the full data.

The experiment concerns HEK293T (UBE3A T485A transfected, BAR Wnt reporter). As to the kind of experiment: Renilla luciferase signal (cell health) relative to plate median (fold (linear ratio)); higher = higher Renilla signal. Conditions: 24 h. The method, boiled down:
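HEK293T cells were grown in DMEM with 10% FBS at 37°C and 5% CO2, at 4500 cells/well in white 384-well plates. They were transfected with a BAR firefly luciferase Wnt reporter, TK-Renilla and an expression plasmid using Fugene 6. Four hours later, robots dosed the chemicals at 0.01–100 uM for 24 h, followed by Dual-Glo luciferase readout. Wnt activity (firefly/Renilla ratio) and cell health (raw Renilla) were median-centred per plate, averaged over four biological replicates.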

As to `O=C1O[C@H]([C@@H](O)CO)C([O-])=C1O.[Na+]` [Sodium L-ascorbate], the Renilla luciferase signal came out at 1.02 (concentration: 0.1 uM), 1.09 (concentration: 1 uM), 1.24 (concentration: 10 uM) and 1.45 (concentration: 100 uM).
For `CCOC(=O)COc1ccc2c(c1)CC(NCC(O)c1cccc(Cl)c1)CC2.Cl` (configuration not stated) the same measures were 0.843, 0.832, 0.848 and 0.984.
Consider `CC(O)CN(CCN(CC(C)O)CC(C)O)CC(C)O` (configuration not stated) [N,N,N',N'-Tetrakis(2-Hydroxypropyl)ethylenediamine], for which the Renilla luciferase signal was 1.07 (concentration: 0.1 uM), 1.01 (concentration: 1 uM), 1.16 (concentration: 10 uM) and 1.46 (concentration: 100 uM).
`Oc1ccc(C(c2ccc(O)cc2)C(Cl)(Cl)Cl)cc1` [2,2-Bis(4-hydroxyphenyl)-1,1,1-trichloroethane]: the Renilla luciferase signal runs as follows: (concentration: 0.01 uM) 1.19; (concentration: 0.1 uM) 1.15; (concentration: 1 uM) 1.03; (concentration: 10 uM) 0.88; (concentration: 100 uM) 0.0319.
Regarding `Nc1nc(=O)c2nc(CNc3ccc(C(=O)N[C@@H](CCC(=O)O)C(=O)O)cc3)cnc2[nH]1` [Folic acid], the Renilla luciferase signal (concentration: 0.1 uM) was 0.935, the Renilla luciferase signal (concentration: 1 uM) was 0.934, the Renilla luciferase signal (concentration: 10 uM) is 1.07 and the Renilla luciferase signal (concentration: 100 uM) is 1.19.
Consider `CC(C)(O)c1ccc(CNC(=O)c2cccnc2Oc2ccc3nonc3c2)cc1`, for which the Renilla luciferase signal was found to be 0.961 (concentration: 0.1 uM), 0.975 (concentration: 1 uM), 0.999 (concentration: 10 uM) and 0.124 (concentration: 100 uM).
Take `[Cl-].[K+]`: the Renilla luciferase signal (concentration: 100 uM) came out at 1.88.
For the compound `Cc1ccc(C(C)C)cc1` [p-Cymene], the Renilla luciferase signal reads like this: (concentration: 0.1 uM) 1.03; (concentration: 1 uM) 0.949; (concentration: 10 uM) 1.11; (concentration: 100 uM) 1.51.
The like results for `Cc1ccc(N(C)C)cc1` [N,N,4-Trimethylaniline] were, in that order, 0.776, 0.869, 0.9 and 0.941.
For the compound `CCC(C)=NO` [2-Butanone oxime], the Renilla luciferase signal runs as follows: (concentration: 0.1 uM) 1.07; (concentration: 1 uM) 1.14; (concentration: 10 uM) 1.17; (concentration: 100 uM) 1.51.
`CCCOC(=O)c1cc(O)c(O)c(O)c1` [Propyl gallate]: the Renilla luciferase signal came out at 0.872 (concentration: 0.1 uM), 0.862 (concentration: 1 uM), 0.785 (concentration: 10 uM) and 0.961 (concentration: 100 uM).
On to `CCC1(O)C(=O)OCc2c1cc1n(c2=O)Cc2cc3c(CN(C)C)c(O)ccc3nc2-1` (configuration not stated) [Topotecan], for which the Renilla luciferase signal is 0.831 (concentration: 0.01 uM); 0.262 (concentration: 0.1 uM); 0.107 (concentration: 1 uM); 0.199 (concentration: 10 uM); 0.157 (concentration: 100 uM).
For `O=[N+]([O-])c1ccc([O-])cc1.[Na+]` [Sodium 4-nitrophenolate], the Renilla luciferase signal came out at 0.98 (concentration: 0.1 uM), 0.86 (concentration: 1 uM), 0.924 (concentration: 10 uM) and 0.669 (concentration: 100 uM).
Consider `CCCCCCCCCCCCCCCO` [1-Pentadecanol], for which the Renilla luciferase signal (concentration: 0.1 uM) is 0.983, the Renilla luciferase signal (concentration: 1 uM) turned out to be 1.26, the Renilla luciferase signal (concentration: 10 uM) came to 1.07 and the Renilla luciferase signal (concentration: 100 uM) was found to be 1.38.
The like results for `Cc1cc(F)ccc1-c1cc(N2CC[C@@H](O)[C@H]2CO)ncc1N(C)C(=O)C(C)(C)c1cc(C(F)(F)F)cc(C(F)(F)F)c1` were, in that order, 1.21, 1.17, 1.16 and 0.172.
The like results for `CCCCCCCCN(C)C` [N,N-Dimethyloctylamine] were, in that order, 0.788, 0.836, 1.01 and 1.05.
With `CC(C(C)N1CC(=O)NC(=O)C1)N1CC(=O)NC(=O)C1` (configuration not stated), the Renilla luciferase signal was found to be 0.735 (concentration: 0.01 uM); 0.674 (concentration: 0.1 uM); 0.785 (concentration: 1 uM); 0.383 (concentration: 10 uM); 0.396 (concentration: 100 uM).
Regarding `OC(CCl)CCl` [1,3-Dichloro-2-propanol], the Renilla luciferase signal is, setting by setting: (concentration: 0.1 uM) 0.799; (concentration: 1 uM) 0.886; (concentration: 10 uM) 1.05; (concentration: 100 uM) 1.03.
Turning to `CC(=O)OC1CC(C)OC(C)O1` (configuration not stated) [Dimethoxane], the Renilla luciferase signal is, setting by setting: (concentration: 0.1 uM) 1.23; (concentration: 1 uM) 1.1; (concentration: 10 uM) 1.26; (concentration: 100 uM) 1.63.
The like results for `CCCCOCCO` [2-Butoxyethanol] were, in that order, 0.833, 0.844, 0.847 and 0.897.
Regarding `Cc1[nH]nc2c1N=C(c1ccccc1Cl)c1cc([N+](=O)[O-])ccc1N2`, the Renilla luciferase signal (concentration: 0.1 uM) was 0.56, the Renilla luciferase signal (concentration: 1 uM) came out at 0.0635, the Renilla luciferase signal (concentration: 10 uM) was 0.151 and the Renilla luciferase signal (concentration: 100 uM) turned out to be 0.117.
For `CCc1nc(N)nc(N)c1-c1ccc(Cl)cc1` [Pyrimethamine] the same measures were 1.11, 1.06, 1.07 and 0.0813.
For `CC(C)C(=O)Nc1ccc([N+](=O)[O-])c(C(F)(F)F)c1` [Flutamide] the same measures were 0.736, 0.814, 0.649 and 0.307.
The like results for `CC(=O)CC(c1ccccc1)c1c(O)c2ccccc2oc1=O` (configuration not stated) [Warfarin] were, in that order, 1.16, 0.923, 0.762 and 1.24.
In the case of `O=C1CCCCC1` [Cyclohexanone], the Renilla luciferase signal runs as follows: (concentration: 0.1 uM) 0.948; (concentration: 1 uM) 0.937; (concentration: 10 uM) 0.997; (concentration: 100 uM) 1.09.
With `O=c1nc(-c2ccc(C(F)(F)F)cc2)[nH]c2c1CSCC2`, the Renilla luciferase signal stood at 0.904 (concentration: 0.01 uM); 1.01 (concentration: 0.1 uM); 0.981 (concentration: 1 uM); 0.974 (concentration: 10 uM); 1.06 (concentration: 100 uM).
In the case of `Cl.O=C(c1ccc(OCCN2CCCCC2)cc1)c1c(-c2ccc(O)cc2)sc2cc(O)ccc12` [Raloxifene hydrochloride], the Renilla luciferase signal runs as follows: (concentration: 0.1 uM) 0.885; (concentration: 1 uM) 0.889; (concentration: 10 uM) 0.863; (concentration: 100 uM) 0.022.
The like results for `O=C(O)c1cccc(Oc2ccccc2)c1` [3-Phenoxybenzoic acid] were, in that order, 0.986, 1.02, 1.07 and 1.07.
As to `O=C(O)C1(C(=O)Nc2ccc(Cl)cc2Cl)CC1` [Cyclanilide], the Renilla luciferase signal by setting is: (concentration: 0.01 uM) 1.02; (concentration: 0.1 uM) 0.825; (concentration: 1 uM) 0.968; (concentration: 10 uM) 0.934; (concentration: 100 uM) 0.617.
As for `OCC1OC(n2cnc3c(NC4CCCC4)ncnc32)C(O)C1O` (configuration not stated) [N6-Cyclopentyl adenosine], the Renilla luciferase signal is, setting by setting: (concentration: 0.01 uM) 1.18; (concentration: 0.1 uM) 1.03; (concentration: 1 uM) 0.94; (concentration: 10 uM) 0.856; (concentration: 100 uM) 1.
With `O=C(Oc1ccccc1)c1cccc(C(=O)Oc2ccccc2)c1` [Diphenyl isophthalate], the Renilla luciferase signal (concentration: 0.1 uM) is 0.764, the Renilla luciferase signal (concentration: 1 uM) was determined as 0.859, the Renilla luciferase signal (concentration: 10 uM) was 0.84 and the Renilla luciferase signal (concentration: 100 uM) turned out to be 1.1.
